Experimental data reported in the supplement of paper PMC12823440, “Inhibitors supercharge kinase turnover through native proteolytic circuits” (Nature, 2025).
Some of the results follow. Hit calls seldom repeat between salt and free forms of one compound.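 In K562 cells expressing nanoluciferase-fused kinases, luminescence was recorded at 4 h intervals between 2 and 18 h, normalized as percent of control with DMSO at 100% and a positive control at 0%. A significant (2 sigma) signal drop marks a time point as decreased. The authors' rule for a hit is not shown and takes in more than the number of time points.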

Protein sequences, listed by entry. Tags and fused reporters are not part of them. Lines headed by an entry give the natural chain unless they say otherwise; changes in a name come on top.
UniProt P31749: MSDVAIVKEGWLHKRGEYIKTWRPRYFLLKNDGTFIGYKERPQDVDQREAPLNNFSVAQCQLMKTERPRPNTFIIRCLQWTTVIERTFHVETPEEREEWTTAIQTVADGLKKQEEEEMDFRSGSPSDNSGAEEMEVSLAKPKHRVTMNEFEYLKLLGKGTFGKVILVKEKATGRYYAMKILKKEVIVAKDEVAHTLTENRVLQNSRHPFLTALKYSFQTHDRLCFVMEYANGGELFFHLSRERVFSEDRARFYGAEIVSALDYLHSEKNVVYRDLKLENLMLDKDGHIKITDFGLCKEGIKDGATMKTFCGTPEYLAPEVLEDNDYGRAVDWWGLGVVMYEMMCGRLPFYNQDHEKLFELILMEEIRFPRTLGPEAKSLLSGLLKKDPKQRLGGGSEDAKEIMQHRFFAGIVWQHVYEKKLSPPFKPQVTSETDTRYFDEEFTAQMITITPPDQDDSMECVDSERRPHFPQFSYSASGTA
UniProt Q96GD4, whole entry: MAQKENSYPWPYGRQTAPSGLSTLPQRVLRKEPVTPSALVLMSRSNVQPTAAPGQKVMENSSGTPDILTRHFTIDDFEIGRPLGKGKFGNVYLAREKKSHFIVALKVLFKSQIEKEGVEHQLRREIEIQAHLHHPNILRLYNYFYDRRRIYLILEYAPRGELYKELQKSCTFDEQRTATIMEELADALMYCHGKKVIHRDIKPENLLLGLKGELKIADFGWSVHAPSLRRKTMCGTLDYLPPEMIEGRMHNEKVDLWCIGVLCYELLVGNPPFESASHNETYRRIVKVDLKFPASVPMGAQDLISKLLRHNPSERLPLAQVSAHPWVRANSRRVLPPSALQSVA
UniProt P51451: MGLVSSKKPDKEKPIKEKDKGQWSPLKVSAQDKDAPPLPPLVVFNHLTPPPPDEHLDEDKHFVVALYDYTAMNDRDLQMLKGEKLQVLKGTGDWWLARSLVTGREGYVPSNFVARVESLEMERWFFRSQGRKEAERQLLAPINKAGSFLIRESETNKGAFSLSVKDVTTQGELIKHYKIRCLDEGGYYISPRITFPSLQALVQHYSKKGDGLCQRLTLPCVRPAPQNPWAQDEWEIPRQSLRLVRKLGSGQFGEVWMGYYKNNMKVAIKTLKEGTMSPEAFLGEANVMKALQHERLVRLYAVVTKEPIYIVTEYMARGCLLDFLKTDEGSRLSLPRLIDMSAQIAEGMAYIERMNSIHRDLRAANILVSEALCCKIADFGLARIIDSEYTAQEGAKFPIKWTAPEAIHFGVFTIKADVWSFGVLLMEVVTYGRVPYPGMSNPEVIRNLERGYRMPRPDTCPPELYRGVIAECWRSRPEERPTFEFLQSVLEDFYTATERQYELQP
UniProt Q9UM73: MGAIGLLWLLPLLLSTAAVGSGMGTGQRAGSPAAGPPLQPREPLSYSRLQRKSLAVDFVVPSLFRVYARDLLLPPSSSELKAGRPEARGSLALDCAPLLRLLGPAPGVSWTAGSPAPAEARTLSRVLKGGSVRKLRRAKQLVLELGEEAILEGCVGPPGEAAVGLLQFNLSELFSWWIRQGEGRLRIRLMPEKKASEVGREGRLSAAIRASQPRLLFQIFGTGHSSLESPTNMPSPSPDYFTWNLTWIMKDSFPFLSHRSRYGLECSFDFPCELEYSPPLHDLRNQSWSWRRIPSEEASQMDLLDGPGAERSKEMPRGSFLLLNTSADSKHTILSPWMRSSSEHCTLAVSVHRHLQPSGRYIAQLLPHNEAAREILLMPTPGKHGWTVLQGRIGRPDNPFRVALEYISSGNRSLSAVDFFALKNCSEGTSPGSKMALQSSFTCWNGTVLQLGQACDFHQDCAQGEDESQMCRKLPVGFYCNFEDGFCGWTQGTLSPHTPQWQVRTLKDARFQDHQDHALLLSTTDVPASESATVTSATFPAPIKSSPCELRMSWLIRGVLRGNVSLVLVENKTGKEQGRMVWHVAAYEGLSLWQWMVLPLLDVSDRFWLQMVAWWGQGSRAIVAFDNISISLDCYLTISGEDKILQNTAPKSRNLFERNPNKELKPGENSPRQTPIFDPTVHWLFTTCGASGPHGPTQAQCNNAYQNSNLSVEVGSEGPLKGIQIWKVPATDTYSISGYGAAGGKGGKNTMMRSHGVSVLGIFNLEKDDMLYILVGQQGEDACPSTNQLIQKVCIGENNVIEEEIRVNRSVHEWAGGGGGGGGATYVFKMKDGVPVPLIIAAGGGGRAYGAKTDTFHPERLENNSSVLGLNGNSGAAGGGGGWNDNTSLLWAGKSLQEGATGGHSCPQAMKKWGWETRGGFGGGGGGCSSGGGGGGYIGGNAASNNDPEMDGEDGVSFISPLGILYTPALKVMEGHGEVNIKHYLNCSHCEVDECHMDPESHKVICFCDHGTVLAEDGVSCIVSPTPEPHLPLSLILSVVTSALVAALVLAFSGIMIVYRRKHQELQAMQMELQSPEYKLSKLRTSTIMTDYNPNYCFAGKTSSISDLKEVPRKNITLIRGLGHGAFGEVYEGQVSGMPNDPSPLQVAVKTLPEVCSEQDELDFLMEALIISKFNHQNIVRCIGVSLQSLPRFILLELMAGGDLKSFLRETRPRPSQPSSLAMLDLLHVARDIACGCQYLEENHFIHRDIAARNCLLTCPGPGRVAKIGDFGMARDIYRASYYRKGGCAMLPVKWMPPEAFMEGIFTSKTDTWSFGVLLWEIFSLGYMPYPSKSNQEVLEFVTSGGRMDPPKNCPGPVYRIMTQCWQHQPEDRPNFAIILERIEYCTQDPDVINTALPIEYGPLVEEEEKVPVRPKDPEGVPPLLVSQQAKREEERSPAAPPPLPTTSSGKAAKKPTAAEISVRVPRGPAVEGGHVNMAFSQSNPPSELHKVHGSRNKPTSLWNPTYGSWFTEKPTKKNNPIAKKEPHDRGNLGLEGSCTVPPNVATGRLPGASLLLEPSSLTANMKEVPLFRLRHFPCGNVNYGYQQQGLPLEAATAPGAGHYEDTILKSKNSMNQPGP
UniProt Q15303, whole entry R711C: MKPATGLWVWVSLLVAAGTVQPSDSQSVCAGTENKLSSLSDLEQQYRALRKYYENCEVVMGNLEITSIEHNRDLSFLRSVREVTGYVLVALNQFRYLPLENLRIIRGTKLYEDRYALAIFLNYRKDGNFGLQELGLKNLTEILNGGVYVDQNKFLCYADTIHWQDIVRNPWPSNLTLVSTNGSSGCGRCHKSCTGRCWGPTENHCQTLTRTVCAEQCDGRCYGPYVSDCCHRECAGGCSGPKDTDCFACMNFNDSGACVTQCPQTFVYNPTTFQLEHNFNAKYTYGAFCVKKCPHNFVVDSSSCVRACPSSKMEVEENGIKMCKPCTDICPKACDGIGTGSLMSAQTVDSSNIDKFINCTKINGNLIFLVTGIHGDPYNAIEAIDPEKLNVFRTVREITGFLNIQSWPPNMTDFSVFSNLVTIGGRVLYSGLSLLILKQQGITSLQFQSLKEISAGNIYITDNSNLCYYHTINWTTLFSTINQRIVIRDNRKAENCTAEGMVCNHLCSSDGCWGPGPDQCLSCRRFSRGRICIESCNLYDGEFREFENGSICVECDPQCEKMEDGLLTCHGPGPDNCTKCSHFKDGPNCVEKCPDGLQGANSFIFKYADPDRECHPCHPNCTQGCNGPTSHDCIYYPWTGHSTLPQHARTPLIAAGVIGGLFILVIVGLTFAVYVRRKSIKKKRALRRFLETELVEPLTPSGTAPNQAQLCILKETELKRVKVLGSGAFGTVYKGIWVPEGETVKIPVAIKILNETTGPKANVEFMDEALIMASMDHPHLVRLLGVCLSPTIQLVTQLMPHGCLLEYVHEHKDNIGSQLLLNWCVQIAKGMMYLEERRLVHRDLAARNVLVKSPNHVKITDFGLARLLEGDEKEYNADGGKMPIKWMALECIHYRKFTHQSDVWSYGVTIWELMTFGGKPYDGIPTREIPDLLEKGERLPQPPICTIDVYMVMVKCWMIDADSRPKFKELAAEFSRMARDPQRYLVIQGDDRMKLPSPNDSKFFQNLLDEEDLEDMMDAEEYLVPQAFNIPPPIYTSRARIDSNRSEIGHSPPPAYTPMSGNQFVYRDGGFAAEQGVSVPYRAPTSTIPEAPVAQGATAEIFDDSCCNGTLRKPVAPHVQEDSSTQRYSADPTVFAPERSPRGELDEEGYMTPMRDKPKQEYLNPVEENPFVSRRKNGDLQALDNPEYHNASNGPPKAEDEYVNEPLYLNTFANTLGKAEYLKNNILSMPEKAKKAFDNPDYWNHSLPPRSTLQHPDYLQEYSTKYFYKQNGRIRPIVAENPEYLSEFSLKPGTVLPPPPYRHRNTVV
UniProt Q06187: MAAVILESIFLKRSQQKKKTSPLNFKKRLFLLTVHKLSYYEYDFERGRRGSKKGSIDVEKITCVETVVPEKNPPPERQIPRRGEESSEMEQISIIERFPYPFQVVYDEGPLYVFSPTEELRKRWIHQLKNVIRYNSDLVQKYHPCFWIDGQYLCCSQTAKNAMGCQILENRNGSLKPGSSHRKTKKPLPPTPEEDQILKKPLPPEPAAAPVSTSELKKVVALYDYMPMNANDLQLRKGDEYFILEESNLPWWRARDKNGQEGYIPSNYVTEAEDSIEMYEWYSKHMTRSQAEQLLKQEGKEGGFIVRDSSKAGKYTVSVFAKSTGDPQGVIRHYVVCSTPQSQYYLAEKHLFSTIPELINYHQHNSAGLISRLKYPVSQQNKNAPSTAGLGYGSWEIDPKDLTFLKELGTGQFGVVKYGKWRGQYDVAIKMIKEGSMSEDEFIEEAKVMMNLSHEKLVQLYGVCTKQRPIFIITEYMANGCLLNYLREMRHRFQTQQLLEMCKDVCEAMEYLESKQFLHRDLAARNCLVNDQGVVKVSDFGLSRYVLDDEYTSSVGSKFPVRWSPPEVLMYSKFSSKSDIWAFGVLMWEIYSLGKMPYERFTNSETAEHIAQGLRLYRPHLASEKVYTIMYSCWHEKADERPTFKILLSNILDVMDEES
UniProt P51813: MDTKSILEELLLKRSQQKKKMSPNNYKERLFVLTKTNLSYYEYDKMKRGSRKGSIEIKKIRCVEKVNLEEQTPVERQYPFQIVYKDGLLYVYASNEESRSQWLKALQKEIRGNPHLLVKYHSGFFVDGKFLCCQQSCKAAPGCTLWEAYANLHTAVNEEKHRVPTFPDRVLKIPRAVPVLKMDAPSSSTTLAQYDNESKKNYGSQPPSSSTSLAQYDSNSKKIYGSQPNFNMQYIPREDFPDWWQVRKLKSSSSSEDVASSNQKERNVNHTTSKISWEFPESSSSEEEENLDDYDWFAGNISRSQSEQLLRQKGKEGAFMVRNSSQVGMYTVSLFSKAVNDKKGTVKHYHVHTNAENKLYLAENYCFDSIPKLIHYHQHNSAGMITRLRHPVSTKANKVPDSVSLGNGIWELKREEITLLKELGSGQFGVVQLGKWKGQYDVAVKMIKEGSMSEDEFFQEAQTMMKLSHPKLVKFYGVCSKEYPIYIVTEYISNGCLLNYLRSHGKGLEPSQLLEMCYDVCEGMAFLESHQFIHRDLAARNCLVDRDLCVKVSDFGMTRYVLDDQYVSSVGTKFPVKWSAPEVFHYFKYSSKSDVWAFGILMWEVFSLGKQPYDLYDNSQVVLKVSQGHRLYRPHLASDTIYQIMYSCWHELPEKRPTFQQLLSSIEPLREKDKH
UniProt O96017, whole entry: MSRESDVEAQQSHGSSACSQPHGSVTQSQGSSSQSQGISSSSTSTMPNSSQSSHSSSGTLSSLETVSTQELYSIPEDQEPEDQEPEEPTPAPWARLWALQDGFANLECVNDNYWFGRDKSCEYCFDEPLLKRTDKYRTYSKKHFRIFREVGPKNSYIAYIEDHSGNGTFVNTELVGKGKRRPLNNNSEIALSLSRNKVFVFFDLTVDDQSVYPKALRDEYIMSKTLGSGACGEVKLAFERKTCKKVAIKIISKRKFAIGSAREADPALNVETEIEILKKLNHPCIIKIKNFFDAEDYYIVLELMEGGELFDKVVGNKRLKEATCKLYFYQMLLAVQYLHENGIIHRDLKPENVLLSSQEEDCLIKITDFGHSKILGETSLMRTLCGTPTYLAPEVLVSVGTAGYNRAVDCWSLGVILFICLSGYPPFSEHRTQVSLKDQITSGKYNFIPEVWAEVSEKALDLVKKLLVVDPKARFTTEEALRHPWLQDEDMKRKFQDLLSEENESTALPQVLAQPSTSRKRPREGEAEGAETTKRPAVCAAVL

Tests used:
Assay in all cases: number of time points (of 5) at which kinase-Nluc abundance scored as decreased, DMSO-normalised (count); higher = more persistent destabilization
[1] = compound: C=CC(=O)N(C)CCOc1c(N)ncnc1-c1cc(F)cc(NC(=O)c2ccc(C3CC3)cc2F)c1C [Remibrutinib]; conditions: 10 µM; K562; 2-18 h
[2] = compound: C=CC(=O)N1CCC([C@@H]2CCNc3c(C(N)=O)c(-c4ccc(Oc5ccccc5)cc4)nn32)CC1 [Zanubrutinib]; conditions: 10 µM; K562; 2-18 h
[3] = compound: C=CC(=O)N1CCC[C@@H](n2nc(-c3ccc(Oc4ccccc4)cc3)c3c(N)ncnc32)C1 [Ibrutinib]; conditions: 2.5 µM; K562; 2-18 h
[4] = compound: C=CC(=O)N1C[C@@H](Nc2ncnc3[nH]ccc23)CC[C@H]1C [(2R,5S)-Ritlecitinib]; conditions: 10 µM; K562; 2-18 h
[5] = compound: C=CC(=O)Nc1cc2c(Nc3ccc(F)c(Cl)c3)ncnc2cc1OCCCN1CCOCC1 [Canertinib (dihydrochloride)]; conditions: 2.5 µM; K562; 2-18 h
[6] = compound: C=CC(=O)Nc1cc2c(Nc3ccc(F)c(Cl)c3)ncnc2cc1OCCCN1CCOCC1 [Canertinib]; conditions: 10 µM; K562; 2-18 h
[7] = compound: CC#CC(=O)N1CCC[C@H]1c1nc(-c2ccc(C(=O)Nc3ccccn3)cc2)c2c(N)nccn12 [Acalabrutinib]; conditions: 10 µM; K562; 2-18 h
[8] = compound: CC(C)(C)n1nc(-c2ccc(Cl)cc2)c2c(N)ncnc21; conditions: 10 µM; K562; 2-18 h
[9] = compound: CC(=O)c1c(C)c2cnc(Nc3ccc(N4CCN(C(=O)CCCCCC(=O)N[C@H](C(=O)N5C[C@H](O)C[C@H]5C(=O)NCc5ccc(-c6scnc6C)cc5)C(C)(C)C)CC4)cn3)nc2n(C2CCCC2)c1=O; conditions: 2.5 µM; K562; 2-18 h

AKT1 (UniProt P31749)
number of time points [1]: 0
number of time points [2]: 0
number of time points [3]: 0
number of time points [4]: 0
number of time points [5]: 0
number of time points [6]: 0
number of time points [7]: 0
number of time points [8]: 0

FYN (UniProt P06241)
number of time points [1]: 0
number of time points [2]: 0
number of time points [3]: 0
number of time points [4]: 0
number of time points [5]: 0
number of time points [6]: 0
number of time points [7]: 0
number of time points [8]: 0

EGFR (UniProt P00533)
number of time points [1]: 0
number of time points [2]: 0
number of time points [3]: 0
number of time points [4]: 0
number of time points [7]: 0
number of time points [9]: 0

AURKB (UniProt Q96GD4)
number of time points [1]: 0
number of time points [2]: 0
number of time points [3]: 0
number of time points [4]: 0
number of time points [5]: 0
number of time points [6]: 0
number of time points [7]: 0
number of time points [8]: 0

EGFR_G719S_T790M (UniProt P00533)
number of time points [1]: 0
number of time points [2]: 0
number of time points [3]: 0
number of time points [4]: 0
number of time points [7]: 0
number of time points [9]: 0

LYN (UniProt P07948)
number of time points [1]: 0
number of time points [2]: 0
number of time points [3]: 0
number of time points [4]: 0
number of time points [5]: 0
number of time points [6]: 0
number of time points [7]: 0
number of time points [8]: 0

SYK (UniProt P43405)
number of time points [1]: 0
number of time points [2]: 0
number of time points [3]: 0
number of time points [4]: 0
number of time points [5]: 0
number of time points [6]: 0
number of time points [7]: 0
number of time points [8]: 0

RAF1 (UniProt P04049)
number of time points [1]: 0
number of time points [2]: 0
number of time points [3]: 0
number of time points [4]: 0
number of time points [5]: 0
number of time points [6]: 0
number of time points [7]: 0
number of time points [8]: 0

BLK (UniProt P51451)
number of time points [1]: 0
number of time points [2]: 0
number of time points [3]: 0
number of time points [4]: 0
number of time points [5]: 0
number of time points [6]: 0
number of time points [7]: 0
number of time points [8]: 0

EGFR_T790M (UniProt P00533)
number of time points [1]: 0
number of time points [2]: 0
number of time points [3]: 0
number of time points [4]: 0
number of time points [7]: 0
number of time points [9]: 0

ALK (UniProt Q9UM73)
number of time points [1]: 0
number of time points [2]: 0
number of time points [3]: 0
number of time points [4]: 0
number of time points [5]: 0
number of time points [6]: 0
number of time points [7]: 0
number of time points [8]: 0

EGFR_G719S (UniProt P00533)
number of time points [1]: 0
number of time points [2]: 0
number of time points [3]: 0
number of time points [4]: 0
number of time points [7]: 0
number of time points [9]: 0

ERBB4_R711C (clone: ERBB4_mut) (UniProt Q15303)
number of time points [1]: 0
number of time points [2]: 0
number of time points [3]: 0
number of time points [4]: 0
number of time points [7]: 0
number of time points [9]: 2
number of time points [8]: 0

MAP2K1 (UniProt Q02750)
number of time points [1]: 0
number of time points [2]: 0
number of time points [3]: 0
number of time points [4]: 0
number of time points [5]: 0
number of time points [6]: 0
number of time points [7]: 0
number of time points [8]: 0

EGFR_L861Q (UniProt P00533)
number of time points [1]: 0
number of time points [2]: 0
number of time points [3]: 0
number of time points [4]: 0
number of time points [7]: 0
number of time points [9]: 0

BTK (UniProt Q06187)
number of time points [1]: 0
number of time points [4]: 0
number of time points [5]: 0
number of time points [6]: 0
number of time points [7]: 0
number of time points [9]: 0
number of time points [8]: 0

NTRK3 (UniProt Q16288)
number of time points [1]: 0
number of time points [2]: 0
number of time points [3]: 0
number of time points [4]: 0
number of time points [5]: 0
number of time points [6]: 0
number of time points [7]: 0
number of time points [8]: 0

FGFR2 (UniProt P21802)
number of time points [1]: 0
number of time points [2]: 0
number of time points [3]: 0
number of time points [4]: 0
number of time points [5]: 0
number of time points [6]: 0
number of time points [7]: 0
number of time points [8]: 0

EGFR_L858R (UniProt P00533)
number of time points [1]: 0
number of time points [2]: 0
number of time points [3]: 0
number of time points [4]: 0
number of time points [7]: 0
number of time points [9]: 2

BMX (UniProt P51813)
number of time points [9]: 1
number of time points [8]: 0

EGFR_L718V (UniProt P00533)
number of time points [1]: 0
number of time points [2]: 0
number of time points [3]: 0
number of time points [4]: 0
number of time points [7]: 0
number of time points [9]: 0

CHEK2 (UniProt O96017)
number of time points [1]: 0
number of time points [2]: 0
number of time points [3]: 0
number of time points [4]: 0
number of time points [5]: 0
number of time points [6]: 0
number of time points [7]: 0
number of time points [8]: 0
